Assay results from paper PMC12591124.
Results are given in words; binding and its absence hold for the method and conditions named. In cells and extracts the contact can be indirect. Binding can be weak; no strength is given.

The chains behind the UniProt entries cited, without tags or fusion partners. Where a name states a change or a piece, a line headed by the entry shows the natural chain unless it says otherwise.
UniProt P08670: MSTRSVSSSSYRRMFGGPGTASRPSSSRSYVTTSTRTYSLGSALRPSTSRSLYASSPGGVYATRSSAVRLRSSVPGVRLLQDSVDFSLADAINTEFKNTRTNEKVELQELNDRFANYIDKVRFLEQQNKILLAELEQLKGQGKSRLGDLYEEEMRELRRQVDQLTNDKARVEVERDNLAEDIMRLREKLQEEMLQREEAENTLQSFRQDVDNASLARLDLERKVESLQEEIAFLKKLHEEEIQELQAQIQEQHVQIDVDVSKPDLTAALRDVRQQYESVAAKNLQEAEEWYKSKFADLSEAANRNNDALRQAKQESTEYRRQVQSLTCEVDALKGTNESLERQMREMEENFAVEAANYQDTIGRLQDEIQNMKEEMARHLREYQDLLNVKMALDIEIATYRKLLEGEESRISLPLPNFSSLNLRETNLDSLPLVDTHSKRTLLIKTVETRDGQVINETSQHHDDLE
UniProt Q99873: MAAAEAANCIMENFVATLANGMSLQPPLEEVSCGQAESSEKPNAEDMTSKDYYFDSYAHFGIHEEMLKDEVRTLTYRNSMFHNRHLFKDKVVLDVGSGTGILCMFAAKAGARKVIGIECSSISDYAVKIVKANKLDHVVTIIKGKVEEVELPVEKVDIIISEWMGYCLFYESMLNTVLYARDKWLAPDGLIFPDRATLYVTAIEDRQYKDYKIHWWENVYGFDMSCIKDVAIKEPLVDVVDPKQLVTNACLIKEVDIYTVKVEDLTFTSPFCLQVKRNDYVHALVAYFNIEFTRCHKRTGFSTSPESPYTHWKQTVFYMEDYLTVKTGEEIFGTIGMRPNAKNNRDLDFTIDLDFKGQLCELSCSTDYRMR

How the values were obtained:
[1] = biological target: Flag-vimentin (HEK293T) (human) (UniProt P08670); assay: co-IP; anti-Flag beads precipitate Flag-vimentin, HA-PRMT1 detected (Figure S4A); CoCl2 time course in HEK293T (Figure S4C: less at 2 h, more at 8 h); NP-40 lysis buffer, 4 °C, 2 h
[2] = biological target: Flag-vimentin (HeLa) (human) (UniProt P08670); assay: co-IP; HeLa cells, normoxia or hypoxia (12 h) (Figure S4D); constructs not told in the text shown
[3] = biological target: Flag-PRMT1 (HEK293T, of the Flag-PRMT1-8 set) (human) (UniProt Q99873); assay: co-IP; HEK293T transfected with Flag-PRMT1-8, 48 h; lysates precipitated with anti-Flag beads; blot for endogenous vimentin; NP-40 lysis buffer, 4 °C, 2 h

With “HA-PRMT1 (reciprocal co-IP, Figure S4A) (from UniProt Q99873) (enzyme)” as the substance, how does the binding [1] read?
Its binding is “binds”.

How did the binding [2] turn out when “PRMT1 (HeLa, Figure S4D) (from UniProt Q99873) (enzyme)” was run?
Its binding is “binds”.

“vimentin (endogenous, HEK293T) (from UniProt P08670 1-466)” was tested. Which binding [3] did it give?
The binding was “binds”.
